Publication PMC7949123
These are yes or no findings as the source states them, for the method shown. Some entries that bind do so weakly or less than the wild type.

biological target: PKCα catalytic domain (residues 335–672) (UniProt P17252); test: FRET or BRET; intramolecular SPASM FRET sensor: both partners on one chain, joined by a 10 nm ER/K linker flanked by mCerulean/mCitrine; 25 nM protein; PKC buffer (20 mM Hepes pH 7.5, 5 mM MgCl2, 0.5 mM EGTA, 2 mM DTT); room temperature, 30 min; FRET ratio 525/475 nm; apo and with 1 μM BimI, 1 μM sotrastaurin, 1 μM staurosporine, 10 μM tetrahydrostaurosporine, 100 μM sangivamycin or 100 μM toyocamycin; both purified

Substance | binding
PKCα C1a domain (residues 32–100) (from UniProt P17252 32-100) (domain or fragment) | binds
PKCα pseudo substrate and C1a domains (residues 1–100) (from UniProt P17252 1-100) (domain or fragment) | binds
PKCα regulatory domains (residues 1–293) (from UniProt P17252 1-293) (domain or fragment) | binds
